Measured values published in PubChem BioAssay AID272 (DTP/NCI, 2004).
The list shows only some results of the screen, not a fair sample: it gathers tests that were run many times, whatever their T/C, doses with no T/C, and many T/C values between a quarter and a half above the control. Other doses and runs of a compound stand elsewhere. T/C gives the treated animals as a percentage of the vehicle group. Some doses have a count of surviving animals in place of a T/C: the source holds a T/C of zero for them, seemingly a mark for toxic or unscored doses. Some doses without a T/C left all or most animals alive at the check, yet need not have been tolerated: survival well below the control is almost never listed, so the zero probably covers shortened survival too. Counts of survivors are from the toxicity check (mostly the fifth day) where no day follows; animals may have died later. Schedule codes are those of the source, read here as Q, the interval in days (D) or hours (H), X, the number of doses. Some entries hold several experiments; the results are listed from low to high. Where survival is the endpoint, the PubChem record calls one and a half times the control and up active, and a quarter to a half above the control has no call in these data; cut-offs in other NCI protocols can differ. Some T/C values are followed by the survivors on the day toxicity was checked, most often the fifth; without a count, all were alive then.

Test system: Lewis lung carcinoma i.m., BDF1 mice, T/C %
Test: NCI In Vivo Anticancer Drug Screen. Data for tumor model Lewis Lung Carcinoma (intramuscular) in B6D2F1 (BDF1) mice
In short: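 Mice carrying transplantable tumours received test compound. Survival or tumour size was recorded and expressed as the treated-group value (T) divided by the vehicle-treated control-group value (C).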

[1] = T/C endpoint: median survival time, dose: 4.0 mg/kg/injection, schedule: Q01DX011 (ip), vehicle: saline, higher T/C = longer survival
[2] = T/C endpoint: median survival time, dose: 8.0 mg/kg/injection, schedule: Q01DX011 (ip), vehicle: saline, higher T/C = longer survival

`Nc1nc(=S)c2[nH]cnc2[nH]1` was tested. Which survivor count (T/C endpoint: mean tumor weight, dose: 2.0 mg/kg/injection, schedule: Q01DX011 (ip), vehicle: other, higher T/C = larger tumour) did it give?
The survivor count was 1 of 8.

What about the T/C (T/C endpoint: median survival time, dose: 0.5 mg/kg/injection, schedule: Q01DX011 (ip), vehicle: other, higher T/C = longer survival) of the same compound?
The T/C was 126 % of control [6 of 8 alive].

What about the survivor count (T/C endpoint: median survival time, dose: 1.0 mg/kg/injection, schedule: Q01DX011 (ip), vehicle: other, higher T/C = longer survival) of the same compound?
Its survivor count is 0 of 8 and 8 of 8.

And the survivor count (T/C endpoint: median survival time, dose: 1.5 mg/kg/injection, schedule: Q01DX011 (ip), vehicle: other, higher T/C = longer survival)?
Its survivor count is 0 of 10 and 8 of 10.

What about the survivor count (T/C endpoint: median survival time, dose: 2.0 mg/kg/injection, schedule: Q01DX011 (ip), vehicle: other, higher T/C = longer survival) of the same compound?
Its survivor count is 1 of 8.

And the survivor count (T/C endpoint: median survival time, dose: 3.0 mg/kg/injection, schedule: Q01DX011 (ip), vehicle: other, higher T/C = longer survival)?
The survivor count was 0 of 10.

What about the survivor count (T/C endpoint: median survival time, dose: 6.0 mg/kg/injection, schedule: Q01DX011 (ip), vehicle: other, higher T/C = longer survival) of the same compound?
Its survivor count is 0 of 10 and 6 of 10.

What about the survivor count (T/C endpoint: median survival time, dose: 12.0 mg/kg/injection, schedule: Q01DX011 (ip), vehicle: other, higher T/C = longer survival) of the same compound?
The survivor count was 0 of 10 and 3 of 10.

`O=[As]O` was tested. Which survivor count (T/C endpoint: mean tumor weight, dose: 4.0 mg/kg/injection, schedule: Q01DX011 (ip), vehicle: saline, higher T/C = larger tumour) did it give?
Its survivor count is 2 of 8.

What about the survivor count [1] of the same compound?
The survivor count was 2 of 8.

What about the survivor count [2] of the same compound?
The survivor count was 0 of 8.

And the survivor count (T/C endpoint: median survival time, dose: 16.0 mg/kg/injection, schedule: Q01DX011 (ip), vehicle: saline, higher T/C = longer survival)?
The survivor count was 0 of 8.

What about the survivor count (T/C endpoint: median survival time, dose: 32.0 mg/kg/injection, schedule: Q01DX011 (ip), vehicle: saline, higher T/C = longer survival) of the same compound?
The survivor count was 0 of 8.

Which survivor count (T/C endpoint: median survival time, dose: 200.0 mg/kg/injection, schedule: Q01DX011 (ip), vehicle: saline with Tween-80, higher T/C = longer survival) does the source give for `O=[N+]([O-])c1ccc(N/N=C/CC(O)CO)c([N+](=O)[O-])c1` (centres undefined) here?
The survivor count was 6 of 8.

And the survivor count (T/C endpoint: median survival time, dose: 400.0 mg/kg/injection, schedule: Q01DX011 (ip), vehicle: saline with Tween-80, higher T/C = longer survival)?
Its survivor count is 1 of 8.

How did the survivor count (T/C endpoint: median survival time, dose: 0.25 mg/kg/injection, schedule: Q01DX011 (ip), vehicle: saline, higher T/C = longer survival) turn out when `CC[C@](O)(C(=O)O)c1cc2n(c(=O)c1CO)Cc1cc3ccccc3nc1-2` was run?
Its survivor count is 6 of 8.

And the survivor count (T/C endpoint: median survival time, dose: 2.0 mg/kg/injection, schedule: Q01DX011 (ip), vehicle: saline, higher T/C = longer survival)?
The survivor count was 9 of 10.

What about the survivor count [1] of the same compound?
Its survivor count is 2 of 10 and 5 of 10.

And the survivor count [2]?
Its survivor count is 0 of 10 and 2 of 10.

`CNNCc1ccc(C(=O)NC(C)C)cc1` was tested. Which survivor count (T/C endpoint: mean tumor weight, dose: 300.0 mg/kg/injection, schedule: Q01DX011 (ip), vehicle: saline, higher T/C = larger tumour) did it give?
Its survivor count is 2 of 8.

What about the survivor count (T/C endpoint: median survival time, dose: 80.0 mg/kg/injection, schedule: Q01DX011 (ip), vehicle: saline, higher T/C = longer survival) of the same compound?
The survivor count was 10 of 10.

And the survivor count (T/C endpoint: median survival time, dose: 80.0 mg/kg/injection, schedule: Q01DX012 (ip), vehicle: saline, higher T/C = longer survival)?
The survivor count was 7 of 10.

And the survivor count (T/C endpoint: median survival time, dose: 160.0 mg/kg/injection, schedule: Q01DX011 (ip), vehicle: saline, higher T/C = longer survival)?
Its survivor count is 8 of 10.

What about the survivor count (T/C endpoint: median survival time, dose: 160.0 mg/kg/injection, schedule: Q01DX012 (ip), vehicle: saline, higher T/C = longer survival) of the same compound?
The survivor count was 8 of 10.

And the survivor count (T/C endpoint: median survival time, dose: 300.0 mg/kg/injection, schedule: Q01DX011 (ip), vehicle: saline, higher T/C = longer survival)?
Its survivor count is 2 of 8.

What about the survivor count (T/C endpoint: median survival time, dose: 320.0 mg/kg/injection, schedule: Q01DX011 (ip), vehicle: saline, higher T/C = longer survival) of the same compound?
The survivor count was 0 of 10.

And the survivor count (T/C endpoint: median survival time, dose: 320.0 mg/kg/injection, schedule: Q01DX012 (ip), vehicle: saline, higher T/C = longer survival)?
The survivor count was 7 of 10.

And the survivor count (T/C endpoint: median survival time, dose: 640.0 mg/kg/injection, schedule: Q01DX011 (ip), vehicle: saline, higher T/C = longer survival)?
The survivor count was 0 of 10.

And the survivor count (T/C endpoint: median survival time, dose: 640.0 mg/kg/injection, schedule: Q01DX012 (ip), vehicle: saline, higher T/C = longer survival)?
The survivor count was 0 of 10.
